Measurements reported in patent US20110053900A1, “PROGESTERONE ANTAGONISTS SUCH AS CDB-4124 IN THE TREATMENT OF BREAST CANCER” (Repros Therapeutics inc, priority 2008, published 2011).
At least one structure is not confirmed: it was looked up by name or label, or the drawing left a doubt.

Columns and labels:
[1] = target: T1, glucocorticoid receptor (rbGR) (Oryctolagus cuniculus, UniProt P59667); assay: Glucocorticoid receptor binding; set-up: species or system rabbit
T1 construct: cytosol containing PR or GR were prepared in TEGMD buffer; from tissue; host or cells: thymus of estradiol-primed immature rabbits (cytosol)
T1 sequence (P59667 1-772): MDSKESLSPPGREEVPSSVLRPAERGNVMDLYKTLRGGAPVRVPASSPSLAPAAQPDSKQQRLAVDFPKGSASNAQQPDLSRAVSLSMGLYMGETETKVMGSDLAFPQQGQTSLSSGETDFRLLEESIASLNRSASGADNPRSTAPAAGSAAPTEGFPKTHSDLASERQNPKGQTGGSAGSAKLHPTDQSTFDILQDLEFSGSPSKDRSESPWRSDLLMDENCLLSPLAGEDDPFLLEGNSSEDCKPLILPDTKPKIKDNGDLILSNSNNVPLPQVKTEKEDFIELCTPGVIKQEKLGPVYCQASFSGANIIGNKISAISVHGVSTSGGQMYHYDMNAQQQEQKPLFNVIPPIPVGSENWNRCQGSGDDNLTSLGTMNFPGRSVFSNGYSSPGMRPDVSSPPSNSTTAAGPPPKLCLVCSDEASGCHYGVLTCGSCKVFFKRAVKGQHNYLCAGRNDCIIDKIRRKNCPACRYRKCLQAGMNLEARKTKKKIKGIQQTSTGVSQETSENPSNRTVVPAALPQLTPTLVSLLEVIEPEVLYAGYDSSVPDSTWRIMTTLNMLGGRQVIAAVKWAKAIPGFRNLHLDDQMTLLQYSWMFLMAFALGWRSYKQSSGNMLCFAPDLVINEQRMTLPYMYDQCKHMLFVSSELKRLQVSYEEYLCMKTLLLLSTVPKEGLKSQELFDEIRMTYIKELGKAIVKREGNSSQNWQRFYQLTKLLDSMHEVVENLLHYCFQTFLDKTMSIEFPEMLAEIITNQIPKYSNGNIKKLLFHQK
Protocol: Certain antiprogestins were tested in receptor-binding assays for their ability to bind rabbit progesterone receptor (rbPR) and glucocorticoid receptor (rbGR). […] For PR binding, the cytosol was incubated with 6 nM 1,2-[^3H]progesterone (50.0 Ci/mmole) and competitors were added at concentrations from 2 to 100 nM. For binding to GR, the cytosol was incubated with 6 nM 6,7-[^3H]-dexamethasone (40 Ci/mmol) and test compounds were added at concentrations from 20 to 100 nM. After overnight incubation at 4° C., bound and unbound [^3H] steroids were separated by addition of dextran-coated charcoal and centrifugation at 2100×g for 15 min at 4
C. Supernatants containing the [3H]-steroid receptor complexes were decanted into vials containing 4 ml Optifluor (Packard Instrument Co.), vortexed, equilibrated in a liquid scintillation counter for 30 minutes and then counted for 2 minutes. […] The standards for the PR and GR assays were unlabeled progesterone and dexamethasone, respectively.

rabbit uterus = assay: Anti-McGinty and anti-Clauberg assays; type: in vivo; details: in comparison to RU 486 and CDB-2914
From the text: Also given in the Table are the relative biological activities of the same compounds in the rabbit uterus by the anti-McGinty and anti-Clauberg assays. Compound CDB-2914 (listed at the end of the Table) was used as the control or reference compound (rabbit Biological Activity=1.00) for these experiments because results of experiments using CDB-2914 have been published before (Hild-Petito et al., 1996; Passaro et al., 1997; Reel et al., 1998; Lamer et al., 2000). For the anti-McGinty test, immature female rabbits received a subcutaneous injection of 5 μg estradiol in 10% ethanol/sesame oil daily for 6 consecutive days. On day 7, animals underwent sterile abdominal surgery to ligate a 3-4 cm segment of both uterine horns. The test compound in appropriate solvent was injected intraluminally into the ligated segment of one uterine horn and vehicle alone into the other. […] Five micron sections stained with hematoxylin and cosin were evaluated microscopically for the degree of endometrial glandular proliferation. The percent inhibition of endometrial proliferation for each rabbit was calculated and the mean of the group of five animals recorded. […] Five micron sections stained with hematoxylin and eosin were evaluated microscopically for the degree of endometrial glandular proliferation. […]

[2] = Estrogenic, androgenic, anti-estrogenic and anti-androgenic activities
[3] = system: DMBA-induced tumors of the rat mammary gland; assay: DMBA-induced breast tumors: tumor progression (growth pattern); type: in vivo
Protocol: To induce breast tumors, Sprague-Dawley female rats were given 10 mg/kg body weight of DMBA at 50 days of age. One group of 14 rats (Group 2) received sesame oil at 50 days of age instead of DMBA to serve as the no-DMBA controls. Animals were weighed and palpated weekly along the milk line for any sign of lesions or swellings. Tumor nodules were noted and measured weekly in two dimensions with calipers. When tumors grew to a size of 10-12 mm in any dimension, the individual animal was randomized into one of 14 groups. Tumors appeared as soon as 39 days after oral gavage and as late as 194 days (latter individual not included in study). The mean latency period for tumor appearance was 106±30 days.
Animals were treated for 28 days on the following schedule. Group 1 received daily subcutaneous (s.c.) injections of vehicle (10% ethanol in sesame oil). Group 2 (no DMBA control group-no tumors expected) received vehicle on a schedule decided beforehand to simulate initiation of treatment over a three-month time period. […]
In order to evaluate the effects of CDB-4124, RU486 and progesterone on tumor development and progression, growth kinetics and tumor size were monitored during the treatment period. Individual tumors from animals with tumors in the study were measured weekly in two dimensions with calipers. […]

estrogen receptor (ER) = assay: Expression of estrogen receptor in tumors (IHC); type: in vivo, rat; details: 10 mg/kg
Protocol: (§1) The tumors that were evaluated for proliferation and apoptosis were also assessed for expression of estrogen and progesterone receptors by immunohistochemistry (IHC). The percentage of cells positive for ER and PR was determined and analyzed. Tumors were grouped into four different categories: tumors with 0% of cells expressing ER, tumors with 10% of cells expressing ER, tumors with 15 to 30% of cells expressing ER and tumors with 30-50% of cells expressing ER. In general, untreated tumors consistently expressed ER. Out of 12 tumors analyzed, all 12 expressed ER. Four out of these 12 tumors contained 30-50% ER-positive cells.

[4] = system: progesterone receptor (PR); assay: Expression of progesterone receptor in tumors (IHC); type: in vivo, rat; details: 10 mg/kg
Protocol: as §1
Untreated tumors consistently expressed PR (12/12 tumors). In general, untreated tumors expressed both receptors, ER and PR, therefore it is possible that many malignant tumors are expressors of these two transcription factors. […] In general, long term treatment with CDB-4124 tends to drive down the level of PR in tumors, whereas progesterone tends to work in the opposite direction. Thus, tumors maintain progesterone responsiveness in the presence of progesterone.

T47Darom cells = assay: Crystal violet cell proliferation assay in aromatase-overexpressing T47D cells; type: cell-based, human; details: 1-5 μM, 4 days

SMILES: COCC(=O)[C@@]1(OC(C)=O)CC[C@H]2[C@@H]3CCC4=CC(=O)CCC4=C3[C@@H](c3ccc(N(C)C)cc3)C[C@@]21C [CDB-4124, 21-methoxy-17α-acetoxy-11β-(4 N,N-dimethylaminophenyl)-19-norpregna-4,9-diene-3,20-dione]
- anti-glucocorticoid receptor activity / glucocorticoid receptor binding (in words) [1]: minimal anti-glucocorticoid receptor activity
- antiprogestin activity in the rabbit uterus (in words) (rabbit uterus): strong antiprogestin activity
- estrogenic, androgenic, anti-estrogenic, and anti-androgenic activities (in words) [2]: lack estrogenic, androgenic, anti-estrogenic, and anti-androgenic activities
- effect on tumor growth pattern (in words) ([3]; 10 mg/kg, compared to the controls): decreased the proportion of growing tumors
- effect on tumor growth pattern (in words) ([3]; lowest dose (0.1 mg/kg)): ineffectual
- number of cells expressing ER in tumors (in words) (estrogen receptor (ER)): lowered the number of cells that express ERs
- treated tumors that did not contain ER-expressing cells (estrogen receptor (ER); 7 tumors analyzed): 3 of 7
- PR expression in tumors (in words) [4]: lowered the level of PR expression
- proliferation of T47Darom cells (in words) (T47Darom cells): inhibited proliferation of T47Darom cells in a dose-dependent manner
